Some entries share one result that the patent states for a list of compounds.
System: AKT
Assay: Immunoblotting of phosphorylated vs total AKT, B16-F10
Assay type: cell-based, mouse
Details: 50 μM, 24 hrs

SMILES: O=c1cc(N2CCOCC2)oc2c(-c3ccccc3)cccc12 [LY294002, 2-(4-morpholinyl)-8-phenylchromone]
- inhibition of AKT signaling: up to 7 fold
